Results taken from PubChem BioAssay AID2685 (National Center for Advancing Translational Sciences (NCATS), 2010).
The list shows a part of the results. Further columns of the screen follow, without active or inactive calls. Compounds called inactive in the main read-out are mostly missing here. The note in brackets gives the kind of curve behind each potency; many fits are weak.

Experiment: qHTS Assay for Lipid Storage Modulators in Drosophila S3 Cells;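 for cell number change: cells counted by Cell Tracker Red CMTPX staining in the red channel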
Conditions: BODIPY lipid droplet fluorescence, 18-24 h; for cell number change: measured here: cell count max response, cells fed with added oleic acid
Method in brief: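 Drosophila S3 cells loaded with oleic acid (400 uM, as added) and compounds at several concentrations; lipid droplets imaged by 488-nm laser-scanning cytometry, 500–530 nm intensity and object ratio to cell channel. Percent activity normalized to 20 uM Triacsin C.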

[1] = measured here: lipid fluorescence (Fed channel) AC50, cells fed with added oleic acid
[2] = measured here: cell number channel AC50, cells fed with added oleic acid

Cc1nc2cncc(Br)c2n1C
cell number change: 13.1% | AC50 [1]: 20.6 µM [rising, single point]

CCOC1CCCCC1NS(=O)(=O)c1ccc(Cl)cc1 (stereo not given)
cell number change: -3.2% | AC50 [1]: 4.61 µM [falling, partial curve]

COC(=O)c1ccccc1OCC(=O)N1CCN(c2ccc(Cl)cc2)CC1
cell number change: 12.6%

Cn1cnnc1SCCC(=O)Nc1ccccc1
cell number change: 0.356%

COc1ccc(OCC(O)Cn2c(Nc3ccccc3)nc3c2c(=O)n(C)c(=O)n3C)cc1 (stereo not given)
cell number change: -32.1% | AC50 [2]: 16.4 µM [falling, partial curve]

O=C(CN1C(=O)c2ccccc2S1(=O)=O)Nc1ccc(S(=O)(=O)N2CCCCCC2)cc1
cell number change: 10.3%

c1cnc(N2CCN(c3nc4ccccc4n4cnnc34)CC2)nc1
AC50 [1]: 1.46 µM [falling, partial curve, poor fit]

COc1ccc(CNC(=O)C2CCN(C(=O)c3ccc(F)cc3)CC2)cc1OC
cell number change: -19.6% | AC50 [1]: 4.11 µM [falling, partial curve]

COc1cccc(NC(=O)COC(=O)c2ccccc2SCC(=O)N2CCCC2)c1
cell number change: -4.62%

COc1cccc(CN2CCNC(=O)C2CC(=O)NCCCC2CCCC2)c1OC (stereo not given)
cell number change: 1.98% | AC50 [1]: 6.51 µM [rising, single point]

Cc1ccc(Cn2c(O)c(N=O)c3ccccc32)cc1
cell number change: 22% | AC50 [1]: 18.4 µM [rising, single point]

COc1ccc(C(C(=O)NC2CCCC2)N(Cc2cccnc2)C(=O)Cc2cccs2)c(OC)c1 (stereo not given)
AC50 [1]: 23.1 µM [falling, single point]

O=C(N/C(=C\c1cccnc1)C(=O)N1CCOCC1)c1cccc(Br)c1
cell number change: 16.2% | AC50 [1]: 1.84 µM [falling, single point]

Cc1c(NC(=O)OCCNC(=O)Nc2ccccc2)sc(=S)n1C
cell number change: 2.38% | AC50 [1]: 29.1 µM [falling, single point]

CC1CCCN(C(=O)c2ccc(Cl)c(S(=O)(=O)N3CCCCCC3)c2)C1 (stereo not given)
cell number change: -2.11% | AC50 [2]: 3.26 µM [rising, single point] | AC50 [1]: 2.59 µM [rising, partial curve]

CC(C)CC(C(=O)O)N1C(=O)C2C3CC(C2C1=O)C1C(c2ccccc2)c2sc(=O)[nH]c2SC31 (stereo not given)
cell number change: 52.2% | AC50 [2]: 29.1 µM [rising, single point]

N#CC1=C(S)N(c2ccccc2)C(c2cccs2)NC1=O (stereo not given)
cell number change: -71.7% | AC50 [2]: 32.6 µM [falling, single point] | AC50 [1]: 1.46 µM [falling, partial curve, poor fit]

COc1ccccc1-c1cc(C(=O)NCCCN2CCOCC2)no1
cell number change: 15.3% | AC50 [1]: 29.1 µM [rising, single point]

Cc1ccc(NCN2C(=O)C3C4C=CC(C4)C3C2=O)cc1 (stereo not given)
cell number change: 2.86% | AC50 [1]: 29.1 µM [rising, single point]

CC(C)(C)c1ccc(C(O)CCCN2CCC(C(O)(c3ccccc3)c3ccccc3)CC2)cc1 (stereo not given)
cell number change: -13.1% | AC50 [1]: 7.31 µM [falling, partial curve, poor fit]

COc1cc(C2Nc3ccc4ncccc4c3C3=C2C(=O)CC(C)(C)C3)cc(OC)c1O (stereo not given)
AC50 [1]: 0.82 µM [rising, single point]

O=Cc1cccn1Cc1ccc(Cl)cc1Cl
cell number change: -17.8%

COc1ccc([C@H]2CC(=O)C=C(c3ccc(Cl)c(Cl)c3)C2)cc1
cell number change: -25.4% | AC50 [2]: 0.461 µM [falling, full curve, poor fit] | AC50 [1]: 0.82 µM [falling, partial curve]

CC(C)CN(C(=O)COC(=O)CCSc1ccc(F)cc1)c1c(N)n(Cc2ccccc2)c(=O)[nH]c1=O
cell number change: -13.8% | AC50 [1]: 8.2 µM [falling, partial curve]

COC(=O)CS(=O)(=O)c1ccc2c(c1)CC(=O)N2
cell number change: 51.3% | AC50 [2]: 20.6 µM [rising, single point] | AC50 [1]: 6.51 µM [rising, single point]

CCOc1ccccc1CN1C(=O)NC(C)(c2ccccc2)C1=O (stereo not given)
cell number change: -3.06% | AC50 [1]: 5.8 µM [rising, partial curve, poor fit]

Cc1ccc2nc(SCC(=O)c3ccc(O)cc3O)[nH]c2c1
cell number change: 25.4% | AC50 [2]: 0.731 µM [falling, full curve] | AC50 [1]: 0.82 µM [falling, full curve]

O=C(NN1C(=O)C2C3C=CC(C3)C2C1=O)C(O)c1ccccc1 (stereo not given)
cell number change: -8.78%

CCN(CC)CCC(=O)N1c2ccccc2Sc2ccc(NC(=O)OC)cc21
cell number change: -19.8%

C=CCNc1nc(-c2cc3ccccc3o2)cs1
cell number change: -42.1% | AC50 [2]: 18.4 µM [falling, partial curve]

O=C(CCCN1C(=O)/C(=C/c2ccc(F)cc2)SC1=S)NCCCn1ccnc1
cell number change: -0.382% | AC50 [1]: 18.4 µM [rising, partial curve]

COCc1ccc(C(=O)N2CCCC(N(C)Cc3ccccc3)C2)s1 (stereo not given)
cell number change: 5.42% | AC50 [1]: 5.8 µM [rising, full curve]

COc1ccc(CNC(=O)[C@H](C)NC(=O)[C@@H]2Cc3ccccc3CN2)cc1
cell number change: 18.3% | AC50 [1]: 6.51 µM [rising, single point]

CCC(C)[C@H](NC(=O)OC(C)(C)C)c1nnc(SCc2c(C)[nH]c(=O)[nH]c2=O)o1 (stereo not given in full)
cell number change: -7.34%

O=C(N/N=C/c1ccccn1)c1ccccc1
cell number change: -0.784% | AC50 [1]: 0.0259 µM [rising, single point]

COc1ccc(C(=O)Cn2cnc3ccccc3c2=O)cc1OC
cell number change: 9.4% | AC50 [1]: 3.26 µM [rising, single point]

O=C(COC(=O)c1ccc(S(=O)(=O)NCc2ccco2)cc1)NCc1ccc(F)cc1
cell number change: -1.47% | AC50 [2]: 0.731 µM [falling, single point]

Cc1sc(NC(=O)c2ccco2)c(C(c2cccnc2)N2CCN(C)CC2)c1C (stereo not given)
AC50 [2]: 0.92 µM [rising, full curve, poor fit] | AC50 [1]: 3.66 µM [rising, single point]

COc1ccc(OCC(=O)NC(=S)Nc2ccc(S(=O)(=O)Nc3cc(OC)nc(OC)n3)cc2)cc1
cell number change: 0.522% | AC50 [1]: 29.1 µM [falling, partial curve, poor fit]

CCc1ccc(-n2c(=O)c3ccc(C(=O)NCCc4ccccc4)cc3n(CC(N)=O)c2=O)cc1
cell number change: 158% | AC50 [2]: 29.1 µM [rising, single point] | AC50 [1]: 29.1 µM [rising, partial curve, poor fit]
